According to article doi:10.1101/2025.06.12.659319:
These are yes or no findings as the source states them, for the method shown. In cells and extracts the contact can be indirect. Some binding calls cover weakened binding; strength is not graded here. Sequences can lack the tags named with a protein.

Target: ΔNp63α mNLSbip (RLuc- and YFP-fusions, full length) (human) (UniProt Q9H3D4)
Experiment: FRET or BRET

B1: ΔNp63α mNLSbip (RLuc- and YFP-fusions, full length) (protein, UniProt Q9H3D4-2 1-586)
chain: MLYLENNAQTQFSEPQYTNLGLLNSMDQQIQNGSSSTSPYNTDHAQNSVTAPSPYAQPSSTFDALSPSPAIPSNTDYPGPHSFDVSFQQSSTAKSATWTYSTELKKLYCQIAKTCPIQIKVMTPPPQGAVIRAMPVYKKAEHVTEVVKRCPNHELSREFNEGQIAPPSHLIRVEGNSHAQYVEDPITGRQSVLVPYEPPQVGTEFTTVLYNFMCNSSCVGGMNRRPILIIVTLETRDGQVLGRRCFEARICACPGRDRKADEDSIRKQQVSDSTKNGDGTAAPFAQNTHGIQMTSIAAAASPDDELLYLPVRGRETYEMLLKIKESLELMQYLPQHTIETYRQQQQQQHQHLLQKQTSIQSPSSYGNSSPPLNKMNSMNKLPSVSQLINPQQRNALTPTTIPDGMGANIPMMGTHMPMAGDMNGLSPTQALPPPLSMPSTSHCTPPPPYPTDCSIVSFLARLGCSSCLDYFTTQGLTTIYQIEHYSMDDLASLKIPEQFRHAIWKGILDHRQLHEFSSPSHLLRTPSSASTVSVGSSETRGERVIDAVRFTLRQTISFPPRDEWNDFNFDMDARRNKQQRIKEEGE
- binding: binds
